Test results: US20130230485A1, “Methods for Treating Patients Undergoing Multi-Cycle Chemotherapy” (priority 2012, published 2013)
“And” between values parts separate entries of the source, which are not always exact repeats. Identical values can stand only once. “Also recorded” adds a separate entry of the source. Not every detail of the peptide structures is certain; ends, links or a residue may be inferred.

Assays:
Format in all cases: in vivo, human
[1] = tested on: patients with recurrent ovarian cancer receiving gemcitabine and a platin; experiment: Phase 2 study: percentage of chemotherapy cycles with Grade 3-4 / Grade 4 thrombocytopenia; conditions: for mean percentage of cycles with NCl-CTCAE Grade 3 or 4 thrombocytopenia: gemcitabine + platin
[2] = tested on: patients with recurrent ovarian cancer receiving gemcitabine and a platin; experiment: Phase 2 study: pharmacodynamic effects on peripheral platelet counts and ANC
Source text: Following Institutional Review Board protocol approval and patient signature of an informed consent form, eligible patients were randomized in a 1:1:1 ratio to receive 100 mcg/kg/day TXA127, 300 mcg/kg/day TXA127, or placebo with gemcitabine plus carboplatin or cisplatin. The randomization was stratified by the patients' intended chemotherapy regimen (see below). The Investigator, patient, and Sponsor were blinded to the treatment assignment. Treatment consisted of up to six consecutive 21-day cycles of one of the following chemotherapy regimens:
Regimen A • Intravenous cisplatin therapy at a dose between 30 and 50 mg/m^2 (inclusive) given on Day 1 of the cycle • Intravenous gemcitabine at a dose of 800 mg/m^2 given on Day 1 after cisplatin and on Day 8 of the cycle • Regimen B • Intravenous gemcitabine at a dose of 1,000 mg/m^2 given on Days 1 and 8 of the cycle • Intravenous carboplatin AUC range of 4-6 given on Day 1 of the cycle after gemcitabine
Study drug (TXA127 or placebo) was administered subcutaneously during each treatment cycle once daily for 5 consecutive days following the first chemotherapy agent (Days 2-6) and for 7 consecutive days following the second chemotherapy agent (Days 9-15). At Baseline, End-of-Treatment and weekly throughout each treatment cycle, blood specimens were collected for determination of hematologic variables. Hematologic responses were evaluated based on the National Cancer Institute Common Terminology Criteria for Adverse Events (NCl-CTCAE), Version 3.0.
The following parameters were evaluated to assess the pharmacodynamic effects of TXA127 on peripheral platelet counts: nadir platelet count, maximal platelet count, and maximum percentage increase and decrease from baseline.

[3] = tested on: patients with recurrent ovarian cancer receiving gemcitabine and a platin; experiment: Phase 2 study: relative dose intensity of chemotherapy (actual vs planned)

With `CC[C@H](C)[C@H](NC(=O)[C@H](Cc1ccc(O)cc1)NC(=O)[C@@H](NC(=O)[C@H](CCCNC(=N)N)NC(=O)[C@@H](N)CC(=O)O)C(C)C)C(=O)N[C@@H](Cc1c[nH]cn1)C(=O)N1CCC[C@H]1C(=O)O` [TXA127, Asp-Arg-Val-Tyr-Ile-His-Pro] the “percentage of chemotherapy cycles resulting in Grade 4 thrombocytopenia” value ([1]; 100 mcg/kg TXA127) was “no incidents of Grade 4 thrombocytopenia; also recorded: absence of Grade 4 thrombocytopenia”, the “mean percentage of cycles with NCl-CTCAE Grade 3 or 4 thrombocytopenia” value ([1]; 100 mcg/kg TXA127 subcutaneously) was 12% and the “mean percentage of cycles with NCl-CTCAE Grade 3 or 4 thrombocytopenia” value ([1]; 300 mcg/kg TXA127 subcutaneously) was 22%. The “mean maximal percentage increase in platelet count post-baseline” value ([2]; 100 mcg/kg TXA127) was 68%, the “mean maximal platelet count measured post-baseline” value ([2]; 100 mcg/kg TXA127) was 5.76e+11 L⁻¹ and the “median maximal percentage increase in platelet count post-baseline” value ([2]; 100 mcg/kg TXA127) was 67%. For the same compound, the “median maximal platelet count measured post-baseline” value ([2]; 100 mcg/kg TXA127) was 5.94e+11 L⁻¹, the “platelet concentrations across all chemotherapy cycles” value ([2]; 100 mcg/kg TXA127) was “significant increase in platelet concentrations” and the “platelet concentrations, 100 mcg/kg group compared to 300 mcg/kg group” value ([2]; 100 mcg/kg vs 300 mcg/kg) was “significantly greater”. The “mean maximal percentage increase in platelet count post-baseline” value ([2]; 300 mcg/kg TXA127) was 22%, the “mean maximal platelet count measured post-baseline” value ([2]; 300 mcg/kg TXA127) was 4.3e+11 L⁻¹ and the “median maximal percentage increase in platelet count post-baseline” value ([2]; 300 mcg/kg TXA127) was 29%. For the same compound, the “median maximal platelet count measured post-baseline” value ([2]; 300 mcg/kg TXA127) was 4.39e+11 L⁻¹, the “platelets in later cycles” value ([2]; 300 mcg/kg TXA127, chemotherapy cycles 2-6) was “reduction in platelets” and the “median relative dose intensity (actual vs planned) for the combination chemotherapy” value ([3]; 100 mcg/kg TXA127) was 95%. For the same compound, the “mean maintenance of dose intensity (percent of planned chemotherapy delivered)” value ([3]; 100 mcg/kg TXA127, gemcitabine only (without platinum)) was 86% and 86.5%, the “mean maintenance of dose intensity (percent of planned chemotherapy delivered)” value ([3]; 100 mcg/kg TXA127, gemcitabine+platinum (with platinum)) was 88% and 88.7% and the “median relative dose intensity (actual vs planned) for the combination chemotherapy” value ([3]; 300 mcg/kg TXA127) was 83%. For the same compound, the “mean maintenance of dose intensity” value ([3]; 300 mcg/kg TXA127, gemcitabine alone (without platinum)) was 77% and the “mean maintenance of dose intensity” value ([3]; 300 mcg/kg TXA127, gemcitabine plus platinum (with platinum)) was 80%.
